Results are given in words; binding and its absence hold for the method and conditions named. Binding seen in cells or lysates may run through a third protein. Some binding calls cover weakened binding; strength is not graded here. For some assays here: Tags and fused reporters may be left off the sequences shown.

Chains of the proteins cited; added tags and fusions are not shown.
UniProt Q13616: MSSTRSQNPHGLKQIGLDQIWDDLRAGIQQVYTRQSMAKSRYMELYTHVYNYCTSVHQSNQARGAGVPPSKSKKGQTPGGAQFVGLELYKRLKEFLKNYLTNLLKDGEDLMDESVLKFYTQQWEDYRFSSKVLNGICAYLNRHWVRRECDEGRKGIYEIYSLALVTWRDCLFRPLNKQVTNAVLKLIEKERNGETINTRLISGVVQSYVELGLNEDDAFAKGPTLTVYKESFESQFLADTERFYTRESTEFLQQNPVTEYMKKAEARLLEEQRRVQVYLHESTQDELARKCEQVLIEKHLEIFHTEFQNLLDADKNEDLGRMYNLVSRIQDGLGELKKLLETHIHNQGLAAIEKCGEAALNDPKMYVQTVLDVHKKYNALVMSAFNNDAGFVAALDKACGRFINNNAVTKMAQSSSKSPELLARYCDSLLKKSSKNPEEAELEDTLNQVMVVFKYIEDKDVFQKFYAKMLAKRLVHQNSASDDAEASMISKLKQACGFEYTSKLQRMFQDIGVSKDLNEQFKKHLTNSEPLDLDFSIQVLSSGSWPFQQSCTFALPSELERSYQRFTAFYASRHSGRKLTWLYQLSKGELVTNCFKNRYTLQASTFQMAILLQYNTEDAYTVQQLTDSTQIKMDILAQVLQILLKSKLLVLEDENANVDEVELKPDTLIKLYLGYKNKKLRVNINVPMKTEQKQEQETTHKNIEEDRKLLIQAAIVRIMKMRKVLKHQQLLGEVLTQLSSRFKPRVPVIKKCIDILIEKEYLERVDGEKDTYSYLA

The target of one assay is Flag-CUL1 (UniProt Q13616). As to the kind of experiment: co-IP; HeLa cells cotransfected with two tagged proteins; total cell extracts precipitated with anti-tag antibody (anti-Flag or anti-HA) and protein G sepharose overnight at 4°C, Western blot for the other tag. In general terms: A western blot detects proteins with antibodies after separation by electrophoresis.
For assay [1], the target named is endogenous CUL1 (human (endogenous in HeLa)) (UniProt Q13616). As to the kind of experiment: co-IP; endogenous proteins in HeLa total cell extracts; IP with antibody to one partner or control IgG, Western blot for the other.

B1: myc-DCUN1D3 (protein, UniProt Q8IWE4 1-304)
chain: MGQCVTKCKNPSSTLGSKNGDREPSNKSHSRRGAGHREEQVPPCGKPGGDILVNGTKKAEAATEACQLPTSSGDAGRESKSNAEESSLQRLEELFRRYKDEREDAILEEGMERFCNDLCVDPTEFRVLLLAWKFQAATMCKFTRKEFFDGCKAISADSIDGICARFPSLLTEAKQEDKFKDLYRFTFQFGLDSEEGQRSLHREIAIALWKLVFTQNNPPVLDQWLNFLTENPSGIKGISRDTWNMFLNFTQVIGPDLSNYSEDEAWPSLFDTFVEWEMERRKREGEGRGALSSGPEGLCPEEQT
As to B1, the binding entry in the assay with Flag-CUL1 is recorded as “binds”.

B2: endogenous DCUN1D3 (protein, UniProt Q8IWE4 1-304)
chain: MGQCVTKCKNPSSTLGSKNGDREPSNKSHSRRGAGHREEQVPPCGKPGGDILVNGTKKAEAATEACQLPTSSGDAGRESKSNAEESSLQRLEELFRRYKDEREDAILEEGMERFCNDLCVDPTEFRVLLLAWKFQAATMCKFTRKEFFDGCKAISADSIDGICARFPSLLTEAKQEDKFKDLYRFTFQFGLDSEEGQRSLHREIAIALWKLVFTQNNPPVLDQWLNFLTENPSGIKGISRDTWNMFLNFTQVIGPDLSNYSEDEAWPSLFDTFVEWEMERRKREGEGRGALSSGPEGLCPEEQT
For the molecule B2, the binding result in assay [1] is “binds”.

These data come from PMC5295445.
